From publication PMC3282682
No constants are given. Whether binding was seen depends on the method and setting. Binding seen in cells or lysates may run through a third protein. Some entries that bind do so weakly or less than the wild type. Sequences can lack the tags named with a protein.

Chains of the proteins cited; added tags and fusions are not shown.
UniProt Q02159: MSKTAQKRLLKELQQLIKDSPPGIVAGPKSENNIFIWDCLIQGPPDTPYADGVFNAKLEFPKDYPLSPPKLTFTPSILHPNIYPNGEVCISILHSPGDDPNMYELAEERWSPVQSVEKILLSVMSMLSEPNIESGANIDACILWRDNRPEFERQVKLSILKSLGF

Target: T1, Pof1p, promoter of filamentation (POF1) protein from Saccharomyces cerevisiae (S. cerevisiae (endogenous in BY4741)) (UniProt P25576)
T1 sequence: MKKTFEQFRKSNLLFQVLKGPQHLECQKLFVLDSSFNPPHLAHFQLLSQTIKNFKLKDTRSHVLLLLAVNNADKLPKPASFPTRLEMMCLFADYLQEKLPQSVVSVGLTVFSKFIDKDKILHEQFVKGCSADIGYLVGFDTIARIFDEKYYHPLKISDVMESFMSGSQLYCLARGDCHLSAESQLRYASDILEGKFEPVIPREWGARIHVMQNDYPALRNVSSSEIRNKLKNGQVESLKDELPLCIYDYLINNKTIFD
Test: co-IP; soluble extracts of wild type, Δpct1 and Δpof1 cells (stationary phase, synthetic galactose complete medium) incubated with Dynabead-anti-Pof1p complex overnight at room temperature; lysis buffer 50 mM Hepes pH 7.5, 5 mM EDTA, 150 mM NaCl, 300 mM KCl, 1% Triton X-100, 20 mM β-mercaptoethanol; eluate with 1 mM DTT, Western blot for Ubc7p

- binding: binds
Substance: Ubc7p (ubiquitin conjugating enzyme, ubiquitin conjugase 7) (from UniProt Q02159 1-165)
